The inconclusive results got no clear call from the source; some entries with a clear call stand among them for comparison. Potencies of inconclusive entries are doubtful fits and often do not repeat. The source made the active and inactive calls. How the source made its calls: active means hit-call score of the fitted dose curve at least 0.9, where 1 is the maximum; inconclusive means response in the unintended direction; inactive means score below 0.9.
Target: human Serotonin, 5-Hydroxytryptamine Receptor 6 (5HT6), HTR6 (gene 3362) (UniProt P50406)
Experiment: NVS_GPCR_h5HT6: NovaScreen (NVS) G Protein-Coupled Receptor Assay for human Serotonin, 5-Hydroxytryptamine Receptor 6 (5HT6) (AID 2283253)
Method in brief: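 Filter scintillation counting of radioligand displacement from HEK293-expressed 5HT6, 1 hour post-dose, with loss of signal relative to DMSO. Single 25 uM duplicates first, with concentration series for confirmation.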

Chains of the proteins cited; added tags and fusions are not shown. Lines headed by an entry give the natural chain unless they say otherwise; changes in a name come on top.
UniProt P50406, whole entry, looked up: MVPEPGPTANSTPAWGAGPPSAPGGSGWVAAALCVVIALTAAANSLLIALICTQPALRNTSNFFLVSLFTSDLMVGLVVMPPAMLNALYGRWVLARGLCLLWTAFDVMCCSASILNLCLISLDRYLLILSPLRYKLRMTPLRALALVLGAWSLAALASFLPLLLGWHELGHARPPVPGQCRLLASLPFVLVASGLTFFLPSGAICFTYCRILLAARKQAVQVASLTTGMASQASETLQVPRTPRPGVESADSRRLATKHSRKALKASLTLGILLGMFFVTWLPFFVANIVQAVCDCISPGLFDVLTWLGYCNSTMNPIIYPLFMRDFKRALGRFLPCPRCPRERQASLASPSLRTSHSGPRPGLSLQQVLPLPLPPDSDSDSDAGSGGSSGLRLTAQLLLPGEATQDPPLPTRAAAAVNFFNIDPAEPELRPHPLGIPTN
UniProt P34969, whole entry, looked up: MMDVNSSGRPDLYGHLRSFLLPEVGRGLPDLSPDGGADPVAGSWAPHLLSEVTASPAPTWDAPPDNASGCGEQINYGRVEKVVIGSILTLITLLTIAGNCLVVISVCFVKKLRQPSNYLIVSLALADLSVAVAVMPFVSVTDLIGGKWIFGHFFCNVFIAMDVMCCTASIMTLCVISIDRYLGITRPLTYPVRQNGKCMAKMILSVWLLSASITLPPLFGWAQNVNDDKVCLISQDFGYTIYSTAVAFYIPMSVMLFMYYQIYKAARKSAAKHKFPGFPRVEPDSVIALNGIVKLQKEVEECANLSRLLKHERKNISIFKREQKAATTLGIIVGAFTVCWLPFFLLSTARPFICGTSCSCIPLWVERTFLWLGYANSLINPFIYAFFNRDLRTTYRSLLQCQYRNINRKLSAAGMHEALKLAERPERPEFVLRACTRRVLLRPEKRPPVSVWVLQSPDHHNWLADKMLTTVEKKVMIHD
UniProt P18825, whole entry, looked up: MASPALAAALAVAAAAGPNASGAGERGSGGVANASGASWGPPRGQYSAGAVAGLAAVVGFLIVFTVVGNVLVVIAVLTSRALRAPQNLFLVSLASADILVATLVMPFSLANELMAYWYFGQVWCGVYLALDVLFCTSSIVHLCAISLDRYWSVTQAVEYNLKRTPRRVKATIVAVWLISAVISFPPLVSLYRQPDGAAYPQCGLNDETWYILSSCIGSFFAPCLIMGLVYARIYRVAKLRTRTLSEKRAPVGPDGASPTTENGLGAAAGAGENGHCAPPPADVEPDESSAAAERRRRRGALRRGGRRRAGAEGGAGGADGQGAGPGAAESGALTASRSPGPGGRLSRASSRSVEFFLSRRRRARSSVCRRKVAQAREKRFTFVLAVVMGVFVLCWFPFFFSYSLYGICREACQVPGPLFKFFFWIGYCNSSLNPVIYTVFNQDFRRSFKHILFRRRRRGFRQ
UniProt P13945: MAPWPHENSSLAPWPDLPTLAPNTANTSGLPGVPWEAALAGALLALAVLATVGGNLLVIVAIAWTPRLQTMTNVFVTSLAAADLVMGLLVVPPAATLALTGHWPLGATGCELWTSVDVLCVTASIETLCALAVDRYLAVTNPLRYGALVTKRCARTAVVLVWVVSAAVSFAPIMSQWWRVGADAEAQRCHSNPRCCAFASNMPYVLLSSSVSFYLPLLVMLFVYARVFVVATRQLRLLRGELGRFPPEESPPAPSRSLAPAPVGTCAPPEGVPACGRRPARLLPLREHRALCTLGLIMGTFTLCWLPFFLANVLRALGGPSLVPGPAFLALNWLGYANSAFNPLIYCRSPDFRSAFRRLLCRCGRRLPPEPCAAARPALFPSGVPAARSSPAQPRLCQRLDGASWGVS

| Compound | AC50 |
| --- | --- |
| NC(=O)NO | inconclusive: 0.328 µM |
| CCOC(=O)CCC(=O)OCC | inconclusive: 25 µM |
| O=C(O)c1cccnc1 | inconclusive: 42.8 µM |
| O=C(N[C@@H](Cc1ccccc1)[C@@H](O)C(=O)N1C[C@@H](O)[C@@H](O)C1)c1cc2cc(Cl)ccc2[nH]1 | inconclusive: 45.3 µM |
| COc1cc(S(=O)(=O)O)c(C)cc1N=Nc1c(O)ccc2cc(S(=O)(=O)O)ccc12 | inconclusive: 45.2 µM |

Target: human Serotonin, 5-Hydroxytryptamine Receptor 7 (5HT7), HTR7 (gene 3363) (UniProt P34969)
Experiment: NVS_GPCR_h5HT7: NovaScreen (NVS) G Protein-Coupled Receptor Assay for human Serotonin, 5-Hydroxytryptamine Receptor 7 (5HT7) (AID 2283255);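 further: hits reduce specific radioligand binding relative to DMSO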
Method in brief: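 Filter-bound radioactivity counted after 1 h, with loss of specific radioligand binding fitted against DMSO. Membrane protein came from CHO cells expressing human 5HT7. Chemicals were tested first at 25 uM in duplicate, then in concentration series if active.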

| Compound | AC50 | outcome |
| --- | --- | --- |
| CC(C)(C)c1csc(-c2cc3cc(OCc4ccccc4CC(=O)O)ccc3o2)n1 | inconclusive: 25 µM | – |
| CC(C)c1nnc2ccc(-c3ocnc3-c3cc(F)ccc3F)cn12 | inconclusive: 0.121 µM | – |
| CCCCC(CC)COC(=O)CC(C(=O)OCC(CC)CCCC)S(=O)(=O)O (stereo unspecified) | active: 6.08 µM | – |
| Oc1ccc2c(c1)-c1ccccc1C2 | – | inactive |

Target: human Adenosine A2a Receptor (AdoRA2a), ADORA2A (gene 135) (UniProt P29274)
Experiment: NVS_GPCR_hAdoRA2a: NovaScreen (NVS) G Protein-Coupled Receptor Assay for human Adenosine A2a Receptor (AdoRA2a) (AID 2283256)
Method in brief: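 HEK293-derived receptor preparation, radioligand displacement, 1.5 h, filtration + scintillation read. Loss of bound signal scored vs DMSO. Single-point 25 uM in duplicate first, then concentration-response for actives.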

| Compound | AC50 | outcome |
| --- | --- | --- |
| Nc1ccccc1N | active: 0.975 µM | – |
| CC(=O)O[C@@H]1C[C@@H]2CC[C@@]1(C)C2(C)C | inconclusive: 6.02 µM | – |
| COCc1c(C(C)C)nc(C(C)C)c(/C=C/[C@@H](O)C[C@@H](O)CC(=O)O)c1-c1ccc(F)cc1 | – | inactive |
| CCOC(=O)c1ccc(C2CCC(NC[C@H](O)COc3ccc(O)c(NS(C)(=O)=O)c3)CC2)cc1 (stereo partly specified) | active: 12.1 µM | – |
| CC(=N[Si](C)(C)C)O[Si](C)(C)C | inconclusive: 2.46 µM | – |
| CCOCN(C(=O)CS(=O)(=O)O)c1c(C)cccc1CC | inconclusive: 4.49 µM | – |

A few values from the entries so far.
Value of CCOC(=O)c1ccc(C2CCC(NC[C@H](O)COc3ccc(O)c(NS(C)(=O)=O)c3)CC2)cc1 (stereo partly specified) under AC50: active: 12.1 µM
Value of Nc1ccccc1N under AC50: active: 0.975 µM

Target: human Adrenergic, Alpha 2c Receptor (Adra2C), ADRA2C (gene 152) (UniProt P18825)
Experiment: NVS_GPCR_hAdra2C: NovaScreen (NVS) G Protein-Coupled Receptor Assay for human Adrenergic, Alpha 2c Receptor (Adra2C) (AID 2283259)
Method in brief: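 Screened first in duplicate at 25 uM, with actives then run as concentration series. Membranes from Sf9 cells were exposed for 1 h, and displacement of radioligand was counted after filtration, using DMSO as baseline.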

| Compound | outcome | AC50 |
| --- | --- | --- |
| CCOC(=O)CCC(=O)OCC | inactive | – |
| CC(C)(C)c1csc(-c2cc3cc(OCc4ccccc4CC(=O)O)ccc3o2)n1 | – | inconclusive: 22.4 µM |
| O=S(=O)(O)c1ccc(N=Nc2c(O)ccc3cc(S(=O)(=O)O)ccc23)cc1 | – | inconclusive: 42.5 µM |

Target: human Adrenergic, Beta 3 Receptor (Adrb3), ADRB3 (gene 155) (UniProt P13945)
Experiment: NVS_GPCR_hAdrb3: NovaScreen (NVS) G Protein-Coupled Receptor Assay for human Adrenergic, Beta 3 Receptor (Adrb3) (AID 2283262)
Method in brief: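 A cell-free filter binding assay read by scintillation counting, with displacement of a specific radioligand measured after 1 hour. The receptor source was SK-N-MC extracts (cells pretreated with isoproterenol and 8-bromo-cAMP). Compounds were first tested at 25 uM in duplicate and then in concentration series.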

| Compound | AC50 | outcome |
| --- | --- | --- |
| Cc1[nH]nc2c1N=C(c1ccccc1Cl)c1cc([N+](=O)[O-])ccc1N2 | inconclusive: 25 µM | – |
| CCOC(=O)CCC(=O)OCC | inconclusive: 15.6 µM | – |
| CC/C(=C\C(=N/O)C(N)=O)C(C)[N+](=O)[O-] (stereo unspecified) | – | inactive |

Reference: PubChem BioAssay (EPA / NIEHS)
